Measured values reported in PubChem BioAssay AID248 (DTP/NCI, 2004).
The list does not hold the whole screen: it gathers tests that were run many times, whatever their T/C, doses with no T/C, and many T/C values between a quarter and a half above the control. Other doses and runs of a compound stand elsewhere. T/C is the treated group as % of the vehicle group. Some doses have a count of surviving animals in place of a T/C: the source files T/C as zero there, which appears to mark a toxic dose or a test without result, not a measured value. Some survivor counts are full or nearly so, which does not show that the dose was tolerated: the source hardly ever lists a survival T/C far under the control, and the zero likely stands for such cases as well. Survivors were counted at the toxicity check, usually on the fifth day, unless a day is given; later deaths do not show. Schedule codes are those of the source, read here as Q, the interval in days (D) or hours (H), X, the number of doses. For survival time, this PubChem deposit counts one and a half times the control or more as active, and values a quarter to a half above the control carry no call in these data; other NCI protocols may use other cut-offs. Counts like (3×) give the number of equal values in this list. Some T/C values are followed by the survivors on the day toxicity was checked, most often the fifth; without a count, all were alive then. Some entries hold several experiments; the values are given in rising order. Some schedule codes hold Z or #, which are not explained here.

Test system: L1210 leukemia ip in BDF1 mice, survival T/C
Test: NCI In Vivo Anticancer Drug Screen. Data for tumor model L1210 Leukemia (intraperitoneal) in B6D2F1 (BDF1) mice
Conditions: T/C endpoint: median survival time, higher T/C = longer survival

COc1cccc2c1C(=O)c1c(O)c3c(c(O)c1C2=O)C[C@@](O)(C(=O)CO)C[C@@H]3OC1CC(N)C(O)C(C)O1 (stereo not given in full)
T/C (dose: 0.65 mg/kg/injection, schedule: Q03HX008 (ip), vehicle: water, evaluated on day 30): 120 % of control
T/C (dose: 0.65 mg/kg/injection, schedule: Q03HX008 (ip), vehicle: water, evaluated on day 32): 114 % of control
T/C (dose: 0.65 mg/kg/injection, schedule: Q03HX008 (ip), vehicle: water, evaluated on day 33): 120 % of control
T/C (dose: 0.65 mg/kg/injection, schedule: Q03HX008 (ip), vehicle: water, evaluated on day 35): 140 % of control
T/C (dose: 0.65 mg/kg/injection, schedule: Q03HX008 (ip), vehicle: water, evaluated on day 38): 133 % of control
T/C (dose: 0.65 mg/kg/injection, schedule: Q03HX008 (ip), vehicle: water, evaluated on day 46): 133 % of control
T/C (dose: 0.65 mg/kg/injection, schedule: Q03HX008 (ip), vehicle: water, evaluated on day 60): 95, 105, 131, 159 % of control
T/C (dose: 0.65 mg/kg/injection, schedule: Q03HX008 (ip), vehicle: water, evaluated on day 63): 117 % of control
T/C (dose: 0.65 mg/kg/injection, schedule: Q03HX016 (ip), vehicle: water, evaluated on day 5): 161 % of control
T/C (dose: 0.65 mg/kg/injection, schedule: Q03HX016 (ip), vehicle: water, evaluated on day 46): 161 % of control
T/C (dose: 0.65 mg/kg/injection, schedule: Q03HX016 (ip), vehicle: water, evaluated on day 60): 100 and 113 % of control
T/C (dose: 0.65 mg/kg/injection, schedule: Q03HX024 (ip), vehicle: water, evaluated on day 7): 107 and 160 % of control
T/C (dose: 0.65 mg/kg/injection, schedule: Q03HX024 (ip), vehicle: water, evaluated on day 32): 107 % of control
T/C (dose: 0.65 mg/kg/injection, schedule: Q03HX024 (ip), vehicle: water, evaluated on day 60): 95 and 113 % of control
T/C (dose: 0.65 mg/kg/injection, schedule: Q03HX024 (ip), vehicle: water, evaluated on day 63): 158 % of control
T/C (dose: 0.65 mg/kg/injection, schedule: Q04DX003 (ip), vehicle: water, evaluated on day 5): 86 and 137 % of control
T/C (dose: 0.65 mg/kg/injection, schedule: Q04DX003 (ip), vehicle: water, evaluated on day 60): 86 and 140 % of control
T/C (dose: 0.75 mg/kg/injection, schedule: Q03HX008 (ip), vehicle: water, evaluated on day 5): 107, 131, 133, 137, 138 % of control
T/C (dose: 0.75 mg/kg/injection, schedule: Q03HX008 (ip), vehicle: water, evaluated on day 7): 109 % of control
T/C (dose: 0.75 mg/kg/injection, schedule: Q03HX008 (ip), vehicle: water, evaluated on day 20): 131 % of control
T/C (dose: 0.75 mg/kg/injection, schedule: Q03HX008 (ip), vehicle: water, evaluated on day 29): 137 % of control
T/C (dose: 0.75 mg/kg/injection, schedule: Q03HX008 (ip), vehicle: water, evaluated on day 30): 107, 109, 138 % of control [6 of 8 alive]
T/C (dose: 0.75 mg/kg/injection, schedule: Q03HX008 (ip), vehicle: water, evaluated on day 60): 133 % of control
T/C (dose: 1.0 mg/kg/injection, schedule: Q01DX001 (ip), vehicle: saline, evaluated on day 5): 113, 116, 123, 130, 135, 138 % of control
T/C (dose: 1.0 mg/kg/injection, schedule: Q01DX001 (ip), vehicle: saline, evaluated on day 30): 123 % of control
T/C (dose: 1.0 mg/kg/injection, schedule: Q01DX001 (ip), vehicle: saline, evaluated on day 60): 116, 130, 134, 135 % of control
T/C (dose: 1.0 mg/kg/injection, schedule: Q01DX001 (ip), vehicle: water, evaluated on day 5): 114 % of control (2×)
T/C (dose: 1.0 mg/kg/injection, schedule: Q01DX001 (ip), vehicle: water, evaluated on day 21): 114 % of control
T/C (dose: 1.0 mg/kg/injection, schedule: Q01DX001 (ip), vehicle: water, evaluated on day 30): 116 % of control
T/C (dose: 1.0 mg/kg/injection, schedule: Q01DX009 (ip), vehicle: water): 131 % of control
T/C (dose: 1.0 mg/kg/injection, schedule: Q03HX008 (ip), vehicle: water, evaluated on day 5): 153 % of control
T/C (dose: 1.0 mg/kg/injection, schedule: Q03HX008 (ip), vehicle: water, evaluated on day 30): 141 % of control
T/C (dose: 1.0 mg/kg/injection, schedule: Q03HX008 (ip), vehicle: water, evaluated on day 46): 155 % of control
T/C (dose: 1.0 mg/kg/injection, schedule: Q03HX008 (ip), vehicle: water, evaluated on day 61): 136 % of control
T/C (dose: 1.0 mg/kg/injection, schedule: Q04DX003 (ip), vehicle: water, evaluated on day 5): 137 % of control
T/C (dose: 1.0 mg/kg/injection, schedule: Q04DX003 (ip), vehicle: water, evaluated on day 30): 137 % of control
T/C (dose: 1.0 mg/kg/injection, schedule: Q## X001 (ip), vehicle: saline): 138 % of control
T/C (dose: 1.0 mg/kg/injection, schedule: Q##DX001 (ip), vehicle: saline): 134 % of control
T/C (dose: 1.08 mg/kg/injection, schedule: Q01DX005 (ip), vehicle: water, evaluated on day 5): 120 % of control
T/C (dose: 1.08 mg/kg/injection, schedule: Q01DX005 (ip), vehicle: water, evaluated on day 35): 120 % of control
T/C (dose: 1.08 mg/kg/injection, schedule: Q01DX005 (ip), vehicle: water, evaluated on day 60): 120 and 121 % of control
T/C (dose: 1.08 mg/kg/injection, schedule: Q01DX005 (ip), vehicle: water, evaluated on day 90): 144 % of control
T/C (dose: 1.08 mg/kg/injection, schedule: Q03HX008 (ip), vehicle: none): 146 % of control
T/C (dose: 1.08 mg/kg/injection, schedule: Q03HX008 (ip), vehicle: water, evaluated on day 5): 61, 135, 141, 159 % of control
T/C (dose: 1.08 mg/kg/injection, schedule: Q03HX008 (ip), vehicle: water, evaluated on day 7): 107, 109, 114, 118 % of control
T/C (dose: 1.08 mg/kg/injection, schedule: Q03HX008 (ip), vehicle: water, evaluated on day 20): 114 % of control
T/C (dose: 1.08 mg/kg/injection, schedule: Q03HX008 (ip), vehicle: water, evaluated on day 30): 145 % of control
T/C (dose: 1.08 mg/kg/injection, schedule: Q03HX008 (ip), vehicle: water, evaluated on day 32): 107 % of control
T/C (dose: 1.08 mg/kg/injection, schedule: Q03HX008 (ip), vehicle: water, evaluated on day 33): 140 % of control
T/C (dose: 1.08 mg/kg/injection, schedule: Q03HX008 (ip), vehicle: water, evaluated on day 35): 160 % of control
T/C (dose: 1.08 mg/kg/injection, schedule: Q03HX008 (ip), vehicle: water, evaluated on day 38): 161 % of control
T/C (dose: 1.08 mg/kg/injection, schedule: Q03HX008 (ip), vehicle: water, evaluated on day 46): 133 % of control
T/C (dose: 1.08 mg/kg/injection, schedule: Q03HX008 (ip), vehicle: water, evaluated on day 60): 100, 118, 131 % of control
T/C (dose: 1.08 mg/kg/injection, schedule: Q03HX008 (ip), vehicle: water, evaluated on day 63): 105 % of control
survivor count (dose: 1.08 mg/kg/injection, schedule: Q03HX008 (ip), vehicle: water): 8 of 8
